Results deposited as PubChem BioAssay AID652243 (Drosophila RNAi Screening Center, 2013)
The deposit covers about 24,000 reagents; this is a random part of those with a known target gene and a result. In the full data, 246 (1%) are marked active. 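Plates not normalised; calls are printed but the firefly/Renilla ratio behind them is not deposited; fold cut for lowering reported inconsistently.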 Raw values are not corrected between plates. Entries without a mark were called inactive. Reagents against one gene are numbered here. A plus sign joins genes that one reagent is predicted to hit. Not stated in the record: the amount of reagent.

- Test: 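Knock-downs that decrease or increase androgen receptor reporter signal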 (primary screen)
- Cell system: Drosophila S2R+ cells
- Knock-down reagent: long dsRNA against Drosophila genes
- Time to read-out: 72 h (48 h, then 24 h hormone)
- Challenge: synthetic androgen R1881 at 10 nM for 24 h
- Measured: 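Firefly light from an androgen-responsive reporter and Renilla control light per well, raw and unnormalised, for each of two replicates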
- Direction: firefly reporter light: higher = more light from androgen-responsive reporter; Renilla control light: higher = more constitutive control signal (cell number, transfection)
- Call rule: 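Hit when the log firefly-to-Renilla ratio dropped or increased by a fixed fold versus the mean of GFP or LacZ controls across duplicate plates; lowering cut given as 1.5 and as 3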
- Meaning of the calls: active = hit: reporter lowered or raised; inactive = no hit

no.	Gene	dsRNA no.	firefly reporter light, replicate 1	firefly reporter light, replicate 2	Renilla control light, replicate 1	Renilla control light, replicate 2
1	mino (minotaur)	1	43857	44861	3.79e5	5.11e5
2	PGRP-LD + Cralbp + Pmi	1	1.26e5	1.12e5	2.24e6	1.61e6
3	l(3)07882 (lethal (3) 07882)	1	84503	82729	4.95e5	5.64e5
4	CG2291	1	4.28e5	3.53e5	1.82e6	1.45e6
5	CG11170	1	1.06e6	3.47e5	1.85e6	6.25e5
6	CG11170	2	5.28e5	4.87e5	1.43e6	1.29e6
7	LpR1 (Lipophorin receptor 1)	1	81113	1.01e5	8.10e5	8.07e5
8	LpR1 (Lipophorin receptor 1)	2	1.85e5	1.87e5	2.13e6	2.22e6
9	LpR1 (Lipophorin receptor 1)	3	1.65e5	2.19e5	1.66e6	1.94e6
10	LpR1 (Lipophorin receptor 1)	4	1.11e6	7.57e5	4.45e6	2.08e6
11	CG4570	1	2.63e5	2.83e5	2.49e6	2.94e6
12	CG8646	1	2.47e5	2.43e5	1.83e6	1.64e6
13	CR32011 + CR32010 + PlexB + 1 more	1	7.03e5	7.58e5	2.41e6	1.57e6
14	CR32011 + CR32010 + PlexB + 1 more	2	3.10e5	3.72e5	6.57e5	5.37e5
15	Hydr1 (alpha/beta hydrolase 1)	1	5.32e5	5.16e5	3.18e6	3.71e6
16	Vps16B (Vacuolar protein sorting 16B)	1	1.68e5	1.63e5	2.04e6	2.90e6
17	Mettl3 (Methyltransferase like 3)	1	1.17e5	1.74e5	1.69e6	2.28e6
18	Mettl3 (Methyltransferase like 3)	2	3.17e5	2.79e5	6.48e5	7.15e5
19	Nxt1 (NTF2-related export protein 1)	1	4.91e5	5.62e5	1.77e6	1.77e6
20	Nxt1 (NTF2-related export protein 1)	2	5.82e5	4.56e5	8.95e5	1.03e6
21	CG10681	1	9.05e5	7.21e5	8.55e5	1.45e6
22	CG10681	2	8.89e5	6.96e5	3.08e6	2.44e6
23	CG10681	3	2.61e5	3.02e5	6.07e5	7.43e5
24	tplus3b + tplus3a	1	3.10e5	2.36e5	6.13e5	5.81e5
25	Roe1	1	8.83e5	9.67e5	8.73e5	9.54e5
26	Roe1	2	1.60e5	1.30e5	3.19e5	2.04e5
27	Roe1	3	9.68e5	1.08e6	1.42e6	1.61e6
28	CG7841	1	3.83e5	2.97e5	2.82e6	2.71e6
29	CG30076	1	92665	1.41e5	1.80e5	3.23e5
30	CG30076	2	7.24e5	5.29e5	1.83e6	9.83e5
31	CG15576	1	2.42e5	2.67e5	4.11e6	2.34e6
32	Prosalpha4T2 (Proteasome alpha4 subunit, Testis-specific 2)	1	2.29e5	2.19e5	1.62e6	1.36e6
33	Prosalpha4T2 (Proteasome alpha4 subunit, Testis-specific 2)	2	3.66e5	5.53e5	1.41e6	2.25e6
34	Prosalpha4T2 (Proteasome alpha4 subunit, Testis-specific 2)	3	6.97e5	1.06e6	1.71e6	1.53e6
35	cora (coracle)	1	69181	72927	8.06e5	8.54e5
36	cora (coracle)	2	5.91e5	4.53e5	1.53e6	1.48e6
37	futsch	1	7.68e5	1.13e6	7.53e5	7.67e5
38	futsch	2	3.60e5	3.13e5	2.77e6	3.00e6
39	futsch	3	75447 (active)	58767	1.13e6	9.01e5
40	futsch	4	2.82e5	2.30e5	2.89e6	2.25e6
41	futsch	5	2.36e5	1.54e5	6.86e5	3.88e5
42	toe (twin of eyg)	1	1.22e5	1.34e5	1.35e5	1.37e5
43	CG13003	1	6.65e5	6.51e5	3.22e6	2.39e6
44	CG12290	1	64173	84607	6.12e5	6.84e5
45	CG12290	2	4.89e5	7.72e5	9.08e5	1.43e6
46	CG4676	1	1.75e5	2.02e5	1.44e6	1.37e6
47	CG12115	1	3.88e5	4.35e5	2.82e6	3.62e6
48	mRpS17 (mitochondrial ribosomal protein S17)	1	2.65e5	3.14e5	1.37e6	1.42e6
49	EMC10 (ER membrane protein complex subunit 10)	1	2.58e5	2.56e5	2.20e6	2.22e6
50	Mcr (Macroglobulin complement-related)	1	9.18e5	7.23e5	1.51e6	1.49e6
51	net	1	83438	1.07e5	7.81e5	8.16e5
52	Zif (Zinc-finger protein)	1	1.40e5	47080	5.60e5	4.55e5
53	Act57B (Actin 57B)	1	7.16e5	8.42e5	2.42e6	2.42e6
54	ND-23 (NADH dehydrogenase (ubiquinone) 23 kDa subunit)	1	1.07e5	74602	4.53e5	6.59e5
55	tara (taranis)	1	4.89e5	7.07e5	2.04e5	3.31e5
56	tara (taranis)	2	3.53e5	2.65e5	6.71e5	6.71e5
57	CG18302	1	1.77e5	1.64e5	1.44e6	1.62e6
58	CG18302	2	7.54e5	7.67e5	1.43e6	1.43e6

9 successive entries from above:
no.	Gene	dsRNA no.	firefly reporter light, replicate 1	firefly reporter light, replicate 2	Renilla control light, replicate 1	Renilla control light, replicate 2
36	cora (coracle)	2	5.91e5	4.53e5	1.53e6	1.48e6
37	futsch	1	7.68e5	1.13e6	7.53e5	7.67e5
38	futsch	2	3.60e5	3.13e5	2.77e6	3.00e6
39	futsch	3	75447 (active)	58767	1.13e6	9.01e5
40	futsch	4	2.82e5	2.30e5	2.89e6	2.25e6
41	futsch	5	2.36e5	1.54e5	6.86e5	3.88e5
42	toe (twin of eyg)	1	1.22e5	1.34e5	1.35e5	1.37e5
43	CG13003	1	6.65e5	6.51e5	3.22e6	2.39e6
44	CG12290	1	64173	84607	6.12e5	6.84e5
